{"source": "PubChem BioAssay AID1347076", "about": "(National Center for Advancing Translational Sciences (NCATS), 2019)", "note": "Out of some 400,000 compounds screened, about 13,000 (3.2%) were called active. Inconclusive results, whose numbers are uncertain, are shown with a selection of clear calls. Calls come from the whole dose curve; as a rule, active = well fitted cell-killing curve with a large enough effect; inconclusive = small, poorly fitted or top-dose-only effect, or effect the other way; inactive = flat fitted curve, though single readings scatter. Potencies of inconclusive entries are doubtful fits and often do not repeat. % is set by controls: 0 for no effect and ±100 for the full control effect; potency is the fitted concentration of half-maximal effect."}
{"test": "qHTS assay for MDR1-selective chemotherapeutics: Primary screen using the drug-selected MDR subline cells KB-V1; note: nearly all actives have a fitted effect of over 60% in size", "conditions": "KB-V1 MDR cells viability, CellTiter-Glo, 72 h; activity change, negative = cytotoxicity: at 46.1 µM (top of the series)", "how_it_was_run": "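Following 72 h at 37 degrees C with compound, KB-V1 cell viability was read by CellTiter-Glo luminescence, medium being phenol-red-free DMEM plus 10% FBS; concentration-response parameters came from normalized, curve-fitted qHTS data.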"}
{"smiles": "Cc1nn(Cc2c(F)c(F)c(F)c(F)c2F)c(C)c1NC(=O)c1nn(C)c(C)c1Br", "Potency": "inconclusive: 8.2 µM [cytotoxic, partial curve]"}
{"smiles": "CC(C)(C)OC(=O)C1=CC[C@@H](c2ccc(Cl)c(Cl)c2)N(S(=O)(=O)c2ccc(F)cc2)[C@H]1c1cccc(F)c1", "activity change, negative = cytotoxicity": "inactive: 4.02%"}
{"smiles": "COc1ccc(C(=O)c2cc(C(C)=O)c(Nc3ccccc3)s2)cc1", "Potency": "active: 16.4 µM"}
{"smiles": "CCOC(=O)Cc1ccc(Nc2nc3cc(-c4sccc4C)sc3c(=O)n2C)cc1", "Potency": "active: 14.6 µM"}
{"smiles": "Cc1cccc(C(=O)OCC(=O)N(CC(C)C)c2c(N)n(Cc3ccccc3)c(=O)[nH]c2=O)c1O", "Potency": "inconclusive: 16.4 µM [rising, single point]"}
{"smiles": "CC(C)(C)c1ccc(CN2N=Nc3ccccc3S2(=O)=O)cc1", "Potency": "active: 8.2 µM"}
{"smiles": "Cc1cc(C(C)(C)C)oc1C(=O)O", "Potency": "inconclusive: 29.1 µM [rising, single point]"}
{"smiles": "N#Cc1ccsc1NC(=O)c1ccccn1", "Potency": "inconclusive: 20.6 µM [cytotoxic, single point]"}
{"smiles": "CN(C)c1ccc(C=NCCc2ccc(S(N)(=O)=O)cc2)cc1", "Potency": "inconclusive: 29.1 µM [rising, single point]"}
{"smiles": "O=C(COC(=O)c1cc(-c2ccco2)nc2ccccc12)NCc1ccccc1", "activity change, negative = cytotoxicity": "inactive: -5.02%"}
{"smiles": "CC(=O)Nc1ccc(S(=O)(=O)N(C)c2ccc(OCC(=O)Nc3ccccc3C(C)=O)cc2)cc1", "Potency": "inconclusive: 16.4 µM [cytotoxic, single point]"}
{"smiles": "O=[N+]([O-])c1ccc2c(c1)c1ccccc1n2CCO", "Potency": "active: 8.2 µM"}
{"smiles": "COc1ccccc1C(=O)N/N=C(\\C)c1ccc(NC(=O)C2CC2)cc1", "Potency": "inconclusive: 29.1 µM [rising, single point]"}
{"smiles": "COc1ccc(CCNC(=O)c2ccc(-n3c(C)cc4c3CCC(C)C4)cc2)cc1OC", "note": "(configuration not stated)", "activity change, negative = cytotoxicity": "inactive: 0%"}
{"smiles": "Cc1cc(C)cc(NC(=O)COc2cccc3c(=O)n(C)ccc23)c1", "activity change, negative = cytotoxicity": "inactive: -4.23%"}
{"smiles": "COc1ccc(C(=O)Nc2sc(C(=O)N(C)C)c(C)c2C#N)cc1[N+](=O)[O-]", "Potency": "active: 18.4 µM"}
{"smiles": "C=CCS(=O)(=O)c1nc2ccccc2s1", "Potency": "active: 23.1 µM"}
{"smiles": "COc1ccccc1N(C)S(=O)(=O)c1ccc(Cl)c(C(=O)NCCCN2CCOCC2)c1", "Potency": "inconclusive: 16.4 µM [cytotoxic, single point]"}
{"smiles": "COc1cccc(C(=O)NC2CCCc3ccccc32)c1OC", "note": "(configuration not stated)", "Potency": "inconclusive: 29.1 µM [cytotoxic, single point]"}
{"smiles": "O=C1C=CC(=O)N1c1ccccc1N1C(=O)C=CC1=O", "Potency": "active: 25.9 µM"}
{"smiles": "CCN(CC(=O)NCc1cccs1)C(=O)c1ccccc1F", "Potency": "inconclusive: 29.1 µM [rising, single point]"}
{"smiles": "O=C(N/C(=C\\c1ccc(Br)cc1)C(=O)N1CCOCC1)c1ccccc1Cl", "Potency": "inconclusive: 20.6 µM [cytotoxic, single point]"}
{"smiles": "O=C1CCCN1CCCNC(=S)Nc1ccccc1", "activity change, negative = cytotoxicity": "inactive: 1.44%"}
{"smiles": "Cc1ccc(NC(=S)NC2CCN(Cc3ccccc3)CC2)cc1", "Potency": "inconclusive: 9.2 µM [cytotoxic, partial curve]"}
{"smiles": "CCN(CC)C(=O)CSc1nc(O)c(Cc2ccccc2)c(=O)n1-c1ccccc1", "Potency": "inconclusive: 14.6 µM [rising, single point]"}
{"smiles": "COc1cc(CN2C[C@@H](CO)O[C@@H](n3cnc4c(N(C)C(C)C)ncnc43)C2)cc(OC)c1OC", "activity change, negative = cytotoxicity": "inactive: 1.78%"}
{"smiles": "CCc1cc(=O)[nH]c(SCC(=O)N2CCC(Cc3ccccc3)CC2)n1", "Potency": "inconclusive: 29.1 µM [cytotoxic, single point]"}
{"smiles": "CCOc1ccc(NS(=O)(=O)c2ccc3c(c2)NC(=O)CCS3)cc1", "Potency": "inconclusive: 29.1 µM [cytotoxic, single point]"}
{"smiles": "COc1ccc2oc(-c3ccco3)cc(=O)c2c1", "Potency": "inconclusive: 20.6 µM [cytotoxic, partial curve]"}
{"smiles": "CCn1cnc2cc(NCc3nc4ccccc4n3Cc3ccccc3)ccc21", "Potency": "inconclusive: 29.1 µM [cytotoxic, single point]"}
{"smiles": "O=C(Nc1ccc(Br)cc1F)c1ccc2c(c1)OCCO2", "Potency": "inconclusive: 16.4 µM [cytotoxic, partial curve]"}
{"smiles": "CCc1ccccc1NC(=O)CN(C)C(=O)Cn1ncc(Cl)c(Cl)c1=O", "Potency": "inconclusive: 20.6 µM [cytotoxic, single point]"}
{"smiles": "COc1ccc(Cl)cc1-c1nc(SCC(=O)NC2CCCC2)n[nH]1", "Potency": "inconclusive: 32.6 µM [cytotoxic, single point]"}
{"smiles": "COc1ccccc1NC(=S)N(Cc1cccnc1)Cc1ccccc1Cl", "Potency": "inconclusive: 4.61 µM [cytotoxic, partial curve]"}
{"smiles": "COc1c(F)c(F)c(C(=O)Nc2ccc(N3CCN(Cc4ccccc4)CC3)cc2)c(F)c1F", "Potency": "inconclusive: 7.08 µM [cytotoxic, partial curve]"}
{"smiles": "COc1cccc(OCCn2cc(/C=N/NC(=O)c3ccncc3)c3ccccc32)c1", "Potency": "inconclusive: 25.9 µM [cytotoxic, single point]"}
{"smiles": "CCCCC(=O)NC(c1cccc([N+](=O)[O-])c1)c1c(OC(C)=O)ccc2ccccc12", "note": "(configuration not stated)", "Potency": "inconclusive: 20.6 µM [cytotoxic, single point]"}
{"smiles": "COc1ccc(/C(C)=N/NC(=O)CNC(=O)c2cccnc2)cc1OC", "activity change, negative = cytotoxicity": "inactive: -1.58%"}
{"smiles": "Cc1csc2ncnc(NCCc3ccccn3)c12", "activity change, negative = cytotoxicity": "inactive: -12.9%"}
{"smiles": "CC(C)(C)NC(=O)COC(=O)c1snc(C(=O)NC2CCCCC2)c1N", "Potency": "inconclusive: 10.3 µM [cytotoxic, partial curve]"}
{"smiles": "Cc1cccc(OCC(=O)NCC(=O)N/N=C/c2ccc(O)cc2O)c1", "Potency": "inconclusive: 6.51 µM [cytotoxic, partial curve, poor fit]"}
{"smiles": "CCOC(=O)c1c(/N=C/N(C)C)sc(C(=O)OC)c1C", "activity change, negative = cytotoxicity": "inactive: -17.5%"}
{"smiles": "CN1CCCC(CC2Oc3ccccc3Sc3ccccc32)C1", "note": "(configuration not stated)", "Potency": "inconclusive: 20.6 µM [cytotoxic, single point]"}
{"smiles": "O=C(CSc1nc2ccccc2c(=O)[nH]1)Nc1ccccc1N1CCOCC1", "Potency": "inconclusive: 25.9 µM [cytotoxic, single point]"}
{"smiles": "CN(Cc1cccc(Cl)c1Cl)C(=O)c1ccc(NC(=O)CC#N)cc1", "Potency": "inconclusive: 18.4 µM [cytotoxic, single point]"}
{"smiles": "COc1cccc(CN(C)C(=O)c2ccc(Cl)c(S(=O)(=O)N3CCCCCC3)c2)c1OC", "Potency": "inconclusive: 3.26 µM [cytotoxic, full curve]"}
{"smiles": "O=C(N/N=C/c1ccccn1)c1ccc([N+](=O)[O-])cc1Cl", "activity change, negative = cytotoxicity": "inactive: 4.07%"}
{"smiles": "Cc1onc(C(=O)Nc2sc3c(c2C(N)=O)CCCC3)c1[N+](=O)[O-]", "Potency": "inconclusive: 18.4 µM [cytotoxic, single point]"}
{"smiles": "O=C(CCCc1nc(-c2ccc(Cl)cc2)no1)NC1CCCCC1", "Potency": "active: 11.6 µM"}
{"smiles": "COc1ccc(N2CCN(C(CNS(=O)(=O)c3ccc(C)cc3)c3ccccc3)CC2)cc1", "note": "(configuration not stated)", "Potency": "inconclusive: 18.4 µM [cytotoxic, partial curve, poor fit]"}
{"smiles": "O=C(CCNC(=O)c1ccco1)NCCc1c[nH]c2ccccc12", "activity change, negative = cytotoxicity": "inactive: 15.2%"}
{"smiles": "O=C(NC(=S)N(CCc1ccccc1)CCc1ccccc1)c1ccco1", "Potency": "active: 6.51 µM"}
{"smiles": "CCCCc1c(-c2cccc(F)c2)ncn1CCc1ccccc1OC", "Potency": "active: 11.6 µM"}
{"smiles": "COc1ccccc1/C=C/C(=O)OCCCN(C)C", "activity change, negative = cytotoxicity": "inactive: -2.37%"}
{"smiles": "O=C(NNC(=O)c1ccccc1Cl)c1cccs1", "Potency": "inconclusive: 16.4 µM [rising, partial curve, poor fit]"}
{"smiles": "CCCCc1ccc(-n2nc3cc(C)c(NC(=O)c4ccc(C#N)cc4F)cc3n2)cc1", "Potency": "inconclusive: 29.1 µM [rising, single point]"}
{"smiles": "Cc1cc(C)c(S(=O)(=O)Nc2cccnc2)c(C)c1", "Potency": "inconclusive: 14.6 µM [cytotoxic, partial curve]"}
{"smiles": "N#C/C(=C\\c1ccc(OCc2ccccc2)cc1)C(=O)Nc1ccc(C(=O)O)cc1", "Potency": "inconclusive: 10.3 µM [rising, partial curve]"}
{"smiles": "O=C(CSc1nnc(NC2CCCCC2)s1)NN1C(=O)NC2(CCCCC2)C1=O", "activity change, negative = cytotoxicity": "inconclusive: -1.24%"}
{"smiles": "Cn1cc(-c2coc3c(C(=O)NCc4cccs4)cccc23)cn1", "activity change, negative = cytotoxicity": "inactive: -0.583%"}
{"smiles": "CCOC(=O)c1c(N)sc(C(=O)Nc2ccccc2)c1C", "activity change, negative = cytotoxicity": "inactive: -14.2%"}
{"smiles": "COc1ccc(S(=O)(=O)N2CCOCC2)cc1NC(=O)COc1ccc2c(C)cc(=O)oc2c1", "Potency": "inconclusive: 29.1 µM [rising, single point]"}
{"smiles": "C=CCn1c(=NC(=O)CN2C(=O)CCC2=O)sc2cccc(OC)c21", "activity change, negative = cytotoxicity": "inactive: 11.4%"}
{"smiles": "O=C(O)CCC(=O)Nc1nc2ccc([N+](=O)[O-])cc2s1", "Potency": "inconclusive: 14.6 µM [rising, single point]"}
{"smiles": "O=C(NCc1ccc(F)cc1)c1ccc(S(=O)(=O)N2CCCC2)cc1", "Potency": "inconclusive: 29.1 µM [cytotoxic, single point]"}
{"smiles": "Cc1nc(SCc2nc3ccccc3[nH]2)c2oc3ccc(Br)cc3c2n1", "Potency": "inconclusive: 18.4 µM [rising, single point]"}
{"smiles": "COc1cc(OC)c(/C=N/N2CCN(c3ccccc3OC)CC2)c(OC)c1", "Potency": "inconclusive: 18.4 µM [rising, single point]"}
{"smiles": "O=C(CCl)Nc1cn(-c2ccccc2)nc1-c1ccccc1", "Potency": "active: 20.6 µM"}
{"smiles": "CCc1cc2cc3c(cc2nc1SCC(=O)Nc1nnc(C)s1)OCCO3", "Potency": "inconclusive: 25.9 µM [cytotoxic, partial curve, poor fit]"}
{"smiles": "COc1cccc(CC2(CO)CCCN(S(=O)(=O)N(C)C)C2)c1", "note": "(configuration not stated)", "Potency": "inconclusive: 18.4 µM [cytotoxic, single point]"}
{"smiles": "CCN(CC(=O)NCc1cccs1)C(=O)/C=C/c1ccc(OC)c(OC)c1", "activity change, negative = cytotoxicity": "inactive: -2.99%"}
{"smiles": "Cc1ccc(CNC(=O)c2ccc([N+](=O)[O-])o2)cc1", "Potency": "inconclusive: 20.6 µM [cytotoxic, single point]"}
